Results deposited as PubChem BioAssay AID1259259 (Sanger Institute, 2017)
Aim: 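Kinase silencing that lowers colorectal cancer cell viability alone or with drugs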 (primary screen). Cells: SW1463 human colorectal cancer cells. Reagents: siRNA pool against human genes. Challenge: DMSO vehicle, or one anchor drug: BYL719 at 1 µM, cetuximab at 5 µg/ml, or trametinib at 10 nM. Measured: 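Viability relative to control pool 2 (non-targeting) averaged over replicates, robust z-score for knock-down with no drug, and for each anchor drug the mean synergy score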. Direction: robust z-score, knock-down alone: higher = more viable cells after knock-down. Rule for the call: 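a robust z-score under -3 for knock-down with no drug marks the gene as essential, meaning viability loss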. Calls: active = essential: viability loss from knock-down alone; inactive = no change from knock-down alone.
The whole screen tested 794 reagents; shown is an unselected part. Over the whole deposit, 9 (1.1%) are marked active. 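Calls rest on knock-down alone, not drug synergy; viability values seem capped at 1.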 Not all columns of the deposit are shown. Not stated in the record: the amount of reagent, the time to read-out.

gene knocked down | robust z-score, knock-down alone | call
CSNK2A2 (casein kinase 2 alpha 2) | -0.621 | inactive
PSTK (phosphoseryl-tRNA kinase) | 1.13 | inactive
AMHR2 (anti-Mullerian hormone receptor type 2) | 1.13 | inactive
PIP5KL1 (phosphatidylinositol-4-phosphate 5-kinase like 1) | -0.543 | inactive
TSSK3 (testis specific serine kinase 3) | -0.422 | inactive
RET (ret proto-oncogene) | 0.0593 | inactive
CDK1 (cyclin dependent kinase 1) | 1.13 | inactive
PKIA (cAMP-dependent protein kinase inhibitor alpha) | 1.13 | inactive

Individual results from the entries so far:
Result for AMHR2 (anti-Mullerian hormone receptor type 2) under “robust z-score, knock-down alone”: 1.13
Under “robust z-score, knock-down alone”, PKIA (cAMP-dependent protein kinase inhibitor alpha) has 1.13

The list goes on:
gene knocked down | robust z-score, knock-down alone | call
TRIM27 (tripartite motif containing 27) | 0.894 | inactive
CHEK1 (checkpoint kinase 1) | -4.11 | active
ERN2 (endoplasmic reticulum to nucleus signaling 2) | 1.02 | inactive
CSK (C-terminal Src kinase) | 0.225 | inactive
FXR1 (FMR1 autosomal homolog 1) | 1.13 | inactive
ARID1A (AT-rich interaction domain 1A) | -1.05 | inactive
POLR2B (RNA polymerase II subunit B) | -2.95 | inactive
MAGI1 | -0.448 | inactive
SRPK2 (SRSF protein kinase 2) | 0.671 | inactive
MAP3K14 (mitogen-activated protein kinase kinase kinase 14) | -0.722 | inactive
PRKACG (protein kinase cAMP-activated catalytic subunit gamma) | 1.13 | inactive
AK2 (adenylate kinase 2) | -0.357 | inactive
